The target of test [1] is β2-adaptin subunit of adaptor protein 2 (AP2), endogenous in mouse hippocampus (mouse (endogenous in hippocampus)) (UniProt Q9DBG3). Put plainly: co-IP; mouse hippocampal homogenate (50 ug) in RIPA buffer (200 mM NaCl, 10 mM EDTA, 0.5% NP-40, 0.1% SDS); precipitated with mouse monoclonal CAP1 antibody or β2-adaptin antibody on Protein A magnetic beads; blotted for cofilin1, CAP1, β2-adaptin.

The chains behind the UniProt entries cited, without tags or fusion partners.
UniProt Q9DBG3: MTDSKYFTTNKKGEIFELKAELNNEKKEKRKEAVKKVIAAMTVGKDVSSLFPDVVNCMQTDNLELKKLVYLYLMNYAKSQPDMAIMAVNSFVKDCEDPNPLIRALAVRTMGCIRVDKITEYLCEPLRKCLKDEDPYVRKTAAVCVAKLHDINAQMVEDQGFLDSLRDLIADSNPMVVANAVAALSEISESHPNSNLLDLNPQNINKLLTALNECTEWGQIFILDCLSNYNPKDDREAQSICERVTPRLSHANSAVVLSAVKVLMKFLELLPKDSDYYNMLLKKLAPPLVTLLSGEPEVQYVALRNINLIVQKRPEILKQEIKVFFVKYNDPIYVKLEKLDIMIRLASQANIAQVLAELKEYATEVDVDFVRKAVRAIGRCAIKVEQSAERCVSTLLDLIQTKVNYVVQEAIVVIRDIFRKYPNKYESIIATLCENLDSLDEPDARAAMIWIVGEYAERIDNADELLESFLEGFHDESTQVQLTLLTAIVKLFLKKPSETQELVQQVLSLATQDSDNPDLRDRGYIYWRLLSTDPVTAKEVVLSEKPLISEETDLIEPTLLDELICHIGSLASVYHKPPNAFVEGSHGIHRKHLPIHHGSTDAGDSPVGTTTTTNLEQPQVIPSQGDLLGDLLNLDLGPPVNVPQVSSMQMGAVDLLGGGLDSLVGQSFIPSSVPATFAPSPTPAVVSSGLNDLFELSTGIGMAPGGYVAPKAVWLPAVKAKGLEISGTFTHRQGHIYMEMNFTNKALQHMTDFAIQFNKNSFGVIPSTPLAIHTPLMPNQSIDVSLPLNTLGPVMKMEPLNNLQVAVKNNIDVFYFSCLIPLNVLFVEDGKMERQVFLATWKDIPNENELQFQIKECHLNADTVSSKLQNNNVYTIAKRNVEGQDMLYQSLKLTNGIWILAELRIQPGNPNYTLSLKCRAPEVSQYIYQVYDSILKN
UniProt P18760: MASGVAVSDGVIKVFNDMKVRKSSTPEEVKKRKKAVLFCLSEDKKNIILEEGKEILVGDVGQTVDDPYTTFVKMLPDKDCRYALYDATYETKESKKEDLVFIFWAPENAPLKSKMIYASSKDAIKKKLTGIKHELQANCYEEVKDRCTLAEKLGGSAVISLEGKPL
UniProt P45592: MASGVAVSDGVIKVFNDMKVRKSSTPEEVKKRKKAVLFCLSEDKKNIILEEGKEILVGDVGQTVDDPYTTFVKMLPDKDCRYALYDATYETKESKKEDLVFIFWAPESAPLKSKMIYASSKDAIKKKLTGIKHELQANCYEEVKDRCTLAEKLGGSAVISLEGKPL

Test [2] deals with T1, CAP1, endogenous in rat hippocampal neurons (rat (endogenous in primary hippocampal neurons)) (UniProt Q08163).
T1 sequence: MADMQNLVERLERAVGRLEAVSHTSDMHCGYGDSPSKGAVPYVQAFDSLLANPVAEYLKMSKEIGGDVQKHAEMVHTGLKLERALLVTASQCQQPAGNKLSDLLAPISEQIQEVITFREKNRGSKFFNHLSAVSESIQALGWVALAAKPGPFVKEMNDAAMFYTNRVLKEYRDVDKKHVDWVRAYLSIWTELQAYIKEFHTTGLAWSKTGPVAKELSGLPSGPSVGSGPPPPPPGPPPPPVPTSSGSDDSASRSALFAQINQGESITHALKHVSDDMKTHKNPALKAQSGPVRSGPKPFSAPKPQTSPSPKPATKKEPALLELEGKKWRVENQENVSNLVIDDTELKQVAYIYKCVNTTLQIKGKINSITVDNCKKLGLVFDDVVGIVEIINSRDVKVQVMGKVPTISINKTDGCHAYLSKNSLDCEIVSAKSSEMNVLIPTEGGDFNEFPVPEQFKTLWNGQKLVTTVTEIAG
Put plainly: proximity ligation; Duolink PLA on fixed, permeabilised DIV15 rat primary hippocampal neurons with antibodies against endogenous CAP1 and cofilin1; single antibodies as controls.

No constants are given. Whether binding was seen depends on the method and setting. Binding seen in cells or lysates may run through a third protein. Some results given as binding are weak or reduced against the parent protein; the word gives no strength.

Regarding “cofilin1, endogenous in mouse hippocampus (from UniProt P18760 1-166)”, in test [1], the binding result is “no binding”. On to “cofilin1, endogenous in rat hippocampal neurons (from UniProt P45592 1-166)”, for which the binding entry in test [2] is “binds”.

The values are drawn from paper PMC9585016.
